These are yes or no findings as the source states them, for the method shown. In cells and extracts the contact can be indirect. Some binding calls cover weakened binding; strength is not graded here. Sequences can lack the tags named with a protein. Values belong to the molecule of their own block, whether it stands above or below them.
Key:
[1] = molecular target: T1, GST-fused STAMBPL1 N-terminus (1-140 aa) (UniProt Q96FJ0); experiment: pull-down; HEK293T co-transfected with pEBG-STAMBPL1-GST (full-length or truncated) and pCDH-FOXO1-notag, 48 hr; lysates incubated with Glutathione Sepharose 4B overnight at 4°C; western blot
T1 sequence: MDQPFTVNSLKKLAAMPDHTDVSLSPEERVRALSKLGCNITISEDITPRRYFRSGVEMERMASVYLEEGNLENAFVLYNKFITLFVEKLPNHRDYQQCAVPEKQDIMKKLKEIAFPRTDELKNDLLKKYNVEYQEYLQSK

Sequences of proteins named here, by UniProt entry; tags and fusion partners are left off. A change or cut given only in a name is not applied to a line headed by its entry. Residues count along the entry.
UniProt Q12778: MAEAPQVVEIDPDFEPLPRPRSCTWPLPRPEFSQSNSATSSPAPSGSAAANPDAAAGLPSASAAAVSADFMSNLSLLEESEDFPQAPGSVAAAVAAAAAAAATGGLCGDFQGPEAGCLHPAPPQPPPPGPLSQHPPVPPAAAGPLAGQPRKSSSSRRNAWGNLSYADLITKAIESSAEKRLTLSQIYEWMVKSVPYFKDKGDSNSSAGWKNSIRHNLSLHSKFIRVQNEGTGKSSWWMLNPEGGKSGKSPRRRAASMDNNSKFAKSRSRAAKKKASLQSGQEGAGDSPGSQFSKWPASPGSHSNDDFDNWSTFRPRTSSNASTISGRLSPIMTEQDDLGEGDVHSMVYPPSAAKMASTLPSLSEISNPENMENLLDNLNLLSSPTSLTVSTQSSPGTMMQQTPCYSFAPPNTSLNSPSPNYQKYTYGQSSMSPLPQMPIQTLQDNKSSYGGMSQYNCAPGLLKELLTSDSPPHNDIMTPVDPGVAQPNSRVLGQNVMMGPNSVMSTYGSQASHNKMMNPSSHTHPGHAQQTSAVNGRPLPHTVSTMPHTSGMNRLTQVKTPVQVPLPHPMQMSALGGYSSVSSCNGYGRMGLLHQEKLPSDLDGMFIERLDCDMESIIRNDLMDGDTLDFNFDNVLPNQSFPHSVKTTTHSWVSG
FOXO1 (250-596 aa)-3xFlag: residues 250-596 of Q12778

[2] = molecular target: FOXO1 (endogenous) (human (endogenous in HCC1937)) (UniProt Q12778); experiment: co-IP; endogenous proteins; HCC1937 cell lysate incubated with anti-FOXO1 antibody or rabbit IgG, then protein A/G magnetic beads; western blot for STAMBPL1
[3] = molecular target: FOXO1 (250-596 aa)-3xFlag (UniProt Q12778); experiment: co-IP; HEK293T co-transfected with pCDH-FOXO1-3×Flag (full-length or truncated) and pEBG-STAMBPL1-GST, 48 hr; lysates incubated with anti-Flag magnetic beads overnight at 4°C; western blot

binding [1]: binds
Molecule: FOXO1 without tag (pCDH-FOXO1-notag) (from UniProt Q12778 1-655)

binding [2]: binds
B1: STAMBPL1 (endogenous) (protein, UniProt Q96FJ0 1-436)
chain: MDQPFTVNSLKKLAAMPDHTDVSLSPEERVRALSKLGCNITISEDITPRRYFRSGVEMERMASVYLEEGNLENAFVLYNKFITLFVEKLPNHRDYQQCAVPEKQDIMKKLKEIAFPRTDELKNDLLKKYNVEYQEYLQSKNKYKAEILKKLEHQRLIEAERKRIAQMRQQQLESEQFLFFEDQLKKQELARGQMRSQQTSGLSEQIDGSALSCFSTHQNNSLLNVFADQPNKSDATNYASHSPPVNRALTPAATLSAVQNLVVEGLRCVVLPEDLCHKFLQLAESNTVRGIETCGILCGKLTHNEFTITHVIVPKQSAGPDYCDMENVEELFNVQDQHDLLTLGWIHTHPTQTAFLSSVDLHTHCSYQLMLPEAIAIVCSPKHKDTGIFRLTNAGMLEVSACKKKGFHPHTKEPRLFSICKHVLVKDIKIIVLDLR

binding [3]: binds
B2: STAMBPL1-GST (pEBG-STAMBPL1-GST) (protein, UniProt Q96FJ0 1-436)
chain: B1 chain

Source: publication PMC11984952
